Target: T1, KOR (Cavia porcellus, UniProt P41144)
T1 construct: b: performed in guinea pig whole brain membrane homogenates; from tissue; host or cells: guinea pig (LAL/HA/BR strain) whole brain membrane homogenate
Assay: Radioligand competition binding with [3H]HS665
Parameters: species or system guinea pig
Experimental: Tris-HCl, EGTA, NaCl, MgCl2 x 6H2O, GDP, the GTP analogue GTPγS, were purchased from Sigma-Aldrich (Budapest, Hungary). Fatty acid free bovine serum albumin (BSA) was purchased from Serva (Heidelberg, Germany). Naloxone was kindly provided by the company Endo Laboratories DuPont de Nemours (Wilmington, DE, USA). HS665 was provided by Schmidhammer’s group (University of Innsbruck, Austria). […]
purchased from Tocris Bioscience (Bristol, UK).
DMSO. All compounds were stored in 1 mM stock solution at -20 °C. The radiolabelled GTP analogue, [35S]GTPγS (specific activity: 1000 Ci/mmol) were purchased from Hartmann Analytic (Braunschweig, Germany). [3H]DAMGO (specific activity: 38.8 Ci/mmol),12 [3H]IleDelt II (specific activity: 19,6 Ci/mmol), [3H]WIN55,212-2 (specific activity: 13,1 Ci/mmol) and [3H]HS665 (specific activity: 36.62 Ci/mmol),3 were radiolabeled by the Laboratory of Chemical Biology group in BRC (Szeged, Hungary).
For membrane homogenate preparations male and female Wistar rats (250-300 g body weight) and male guinea pigs (~700 g body weight, LAL/HA/BR strain) were used. Rats were housed in the local animal house of BRC (Szeged, Hungary), while guinea pigs were housed in LAB-ÁLL Bt.
(Budapest, Hungary). […]
binding was determined in the absence of unlabeled compounds. […]

SMILES: C[C@@H](NC(=O)[C@@H](N)Cc1ccc(O)cc1)C(=O)NCC(=O)N[C@@H](Cc1ccccc1)C(N)=O [Compound 10, Tyr-D-Ala-Gly-Phe-NH2, reference compound]
- IC50: 0.575 µM
- KOR binding affinity in words: modest affinity

— publication PMC6009935 (Journal of Enzyme Inhibition and Medicinal Chemistry, 2017)
